# Results deposited as PubChem BioAssay AID1259308 (NCATS, 2017).
# Aim: 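Genes whose loss raises luciferase production in HEK293 cells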 (primary screen)
# Cell system: human HEK293 embryonic kidney cells stably expressing firefly luciferase (HEK-CMV-Luc2-Hygro)
# Knock-down reagent: single siRNA against human genes, 0.8 pmol siRNA per well
# Timing: 72 h
# Read-out: 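Luciferase light (ONE-Glo) measured on one replicate plate set and viability (CellTiter-Glo) on the other, scaled to a negative control siRNA, with robust z-scores and luciferase per cell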
# Direction: total luciferase, z-score and total luciferase, % of control: higher = more reporter protein produced; luciferase per cell, z-score: higher = more reporter output per viable cell; viable cells, % of control: higher = more viable cells
# Rule for the call: 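An siRNA counts as active if its total luciferase robust z-score exceeds 3; genes with two or more such siRNAs out of three were retested with fresh siRNAs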
# Meaning of the calls: active = raised luciferase; inactive = no rise
# The deposit covers about 59,000 reagents; shown is an unselected part. Over the whole deposit, about 1,510 (2.6%) got an active call. 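Calls use total luciferase alone and ignore viability, so some active siRNAs may act by altering cell number.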 A number with no mark means an inactive call.
gene symbol,PubChem SID,"total luciferase, z-score","total luciferase, % of control","luciferase per cell, z-score","viable cells, % of control"
CAMK1 (calcium/calmodulin dependent protein kinase I),SID160720270,-1.53,51.4,-1.4,83.1
CAMK1 (calcium/calmodulin dependent protein kinase I),SID160720271,-0.203,77.9,-0.843,109
CAMK1 (calcium/calmodulin dependent protein kinase I),SID160720272,0.356,89,-0.0682,101
SOBP (sine oculis binding protein homolog),SID160742901,-0.776,66.5,-1.26,103
SOBP (sine oculis binding protein homolog),SID160742902,-1.29,56.1,0.322,57.6
SOBP (sine oculis binding protein homolog),SID160742903,0.125,84.4,-0.282,102
STT3B (STT3 oligosaccharyltransferase complex catalytic subunit B),SID160761000,1.42,110,0.79,100
STT3B (STT3 oligosaccharyltransferase complex catalytic subunit B),SID160761001,-1.46,52.9,-1.15,80.1
STT3B (STT3 oligosaccharyltransferase complex catalytic subunit B),SID160761002,-0.0764,80.4,0.111,87.2
KRTAP24-1 (keratin associated protein 24-1),SID160769009,-0.27,76.5,0.129,82.7
KRTAP24-1 (keratin associated protein 24-1),SID160769010,-0.0803,80.3,-0.0447,90.8
KRTAP24-1 (keratin associated protein 24-1),SID160769011,0.727,96.3,0.74,88.6
PCM1 (pericentriolar material 1),SID160713920,-1.12,59.6,-1.1,89.1
PCM1 (pericentriolar material 1),SID160713921,-1.34,55.1,-1.08,81.9
PCM1 (pericentriolar material 1),SID160713922,1.34,108,0.805,98
IL10 (interleukin 10),SID160775751,-1.02,61.7,-0.539,79.4
IL10 (interleukin 10),SID160775752,-1.11,59.9,-0.682,80.1
IL10 (interleukin 10),SID160775753,0.118,84.2,-0.598,110
PRDM9 (PR/SET domain 9),SID160731574,0.0486,82.9,0.867,73.7
PRDM9 (PR/SET domain 9),SID160745431,0.0747,83.4,-0.42,104
PRDM9 (PR/SET domain 9),SID160745433,-0.381,74.3,1.35,58.2
TSPAN10 (tetraspanin 10),SID160724601,1.21,106,0.616,101
TSPAN10 (tetraspanin 10),SID160724602,1.05,103,0.557,99.2
TSPAN10 (tetraspanin 10),SID160751486,2.9,140,1.43,107
ATP6V0C (ATPase H+ transporting V0 subunit c),SID160776325,-0.761,66.7,1.33,52.6
ATP6V0C (ATPase H+ transporting V0 subunit c),SID160776430,-1.11,59.9,-0.813,82.9
ATP6V0C (ATPase H+ transporting V0 subunit c),SID160776534,-0.376,74.4,-0.499,94.8
G3BP2 (G3BP stress granule assembly factor 2),SID160723406,-0.167,78.6,-0.662,104
G3BP2 (G3BP stress granule assembly factor 2),SID160723407,-0.0432,81,-0.158,94.4
G3BP2 (G3BP stress granule assembly factor 2),SID160723408,0.703,95.9,0.6,91.5
VIPR1 (vasoactive intestinal peptide receptor 1),SID160718768,0.604,93.9,0.585,90
VIPR1 (vasoactive intestinal peptide receptor 1),SID160718769,-0.526,71.4,0.0395,79
VIPR1 (vasoactive intestinal peptide receptor 1),SID160718770,0.149,84.8,-0.353,104
UBE2Q1 (ubiquitin conjugating enzyme E2 Q1),SID160743838,-0.952,62.9,-0.208,74.3
UBE2Q1 (ubiquitin conjugating enzyme E2 Q1),SID160743840,-0.273,76.5,-0.0327,86.2
UBE2Q1 (ubiquitin conjugating enzyme E2 Q1),SID160743841,0.282,87.5,0.423,87.5
LOC440084,SID160725383,-0.863,64.7,-0.803,89.4
LOC440084,SID160733379,-0.269,76.5,-0.906,109
LOC440084,SID160767690,-0.936,63.3,-0.966,91.2
BORCS8 (BLOC-1 related complex subunit 8),SID160727294,0.128,84.4,0.183,89.9
BORCS8 (BLOC-1 related complex subunit 8),SID160727296,-0.449,73,-0.259,87.3
BORCS8 (BLOC-1 related complex subunit 8),SID160734678,0.252,86.9,0.359,88.3
CDIPT (CDP-diacylglycerol--inositol 3-phosphatidyltransferase),SID160728386,0.505,91.9,0.493,90.2
CDIPT (CDP-diacylglycerol--inositol 3-phosphatidyltransferase),SID160728387,0.272,87.3,0.0697,95.8
CDIPT (CDP-diacylglycerol--inositol 3-phosphatidyltransferase),SID160728388,1.35,109,1.34,85.4
ZNF514 (zinc finger protein 514),SID160732041,-0.443,73.1,-0.644,96.7
ZNF514 (zinc finger protein 514),SID160752829,1.65,115,1.67,82.6
ZNF514 (zinc finger protein 514),SID160752830,-1.12,59.7,-1.15,90.4
KRT9 (keratin 9),SID160731175,1.96,121,1.89,82
KRT9 (keratin 9),SID160776400,-0.962,62.8,-1.05,92.4
KRT9 (keratin 9),SID160776401,-0.835,65.3,-0.772,89.4
DNAJA3 (DnaJ heat shock protein family (Hsp40) member A3),SID160721449,0.191,85.7,0.345,87.4
DNAJA3 (DnaJ heat shock protein family (Hsp40) member A3),SID160721450,0.734,96.5,0.727,89
DNAJA3 (DnaJ heat shock protein family (Hsp40) member A3),SID160721451,-1.05,61.1,-1.58,103
WDR73 (WD repeat domain 73),SID160753002,-0.681,68.3,0.3,70.6
WDR73 (WD repeat domain 73),SID160753003,0.116,84.2,0.0722,92.3
WDR73 (WD repeat domain 73),SID160753005,-0.419,73.6,-0.349,90.1
FOXI3 (forkhead box I3),SID160725112,0.114,84.1,0.149,90.4
FOXI3 (forkhead box I3),SID160733112,-0.984,62.3,-1.05,91.9
FOXI3 (forkhead box I3),SID160734748,0.36,89,-0.0466,101
FOXI3 (forkhead box I3),SID160764760,-0.681,68.3,-0.179,80.1
FOXI3 (forkhead box I3),SID160773712,-0.0848,80.2,-0.848,112
FOXI3 (forkhead box I3),SID160773713,0.555,92.9,-0.0707,106
ARL6IP5 (ARF like GTPase 6 interacting protein 5),SID160728704,0.589,93.6,-0.141,109
ARL6IP5 (ARF like GTPase 6 interacting protein 5),SID160728706,-0.0533,80.8,-0.547,104
ARL6IP5 (ARF like GTPase 6 interacting protein 5),SID160730447,-1.48,52.5,-1.21,80.8
C1RL-AS1 (C1RL antisense RNA 1),SID160724984,1.53,112,1.2,91.6
C1RL-AS1 (C1RL antisense RNA 1),SID160732924,-0.573,70.5,-0.73,95.4
C1RL-AS1 (C1RL antisense RNA 1),SID160732925,-0.342,75.1,-0.149,87.3
FAH (fumarylacetoacetate hydrolase),SID160763716,0.105,84,0.45,83.3
FAH (fumarylacetoacetate hydrolase),SID160763727,2.8,138,1.79,95.9
FAH (fumarylacetoacetate hydrolase),SID160763735,-0.774,66.5,1.16,54.7
CHST11 (carbohydrate sulfotransferase 11),SID160739636,1.08,103,1.02,88.3
CHST11 (carbohydrate sulfotransferase 11),SID160739637,-0.122,79.5,0.437,79.1
CHST11 (carbohydrate sulfotransferase 11),SID160739638,-0.401,73.9,-0.393,91.6

Sorted by “viable cells, % of control” (lowest first): some entries from above
gene symbol,PubChem SID,"total luciferase, z-score","total luciferase, % of control","luciferase per cell, z-score","viable cells, % of control"
ZNF514 (zinc finger protein 514),SID160752829,1.65,115,1.67,82.6
ZNF514 (zinc finger protein 514),SID160752830,-1.12,59.7,-1.15,90.4
ZNF514 (zinc finger protein 514),SID160732041,-0.443,73.1,-0.644,96.7
